Data taken from patent publication US20060052451A1, “Method” (priority 2002, published 2006).
Not every entry of the source has a single result; some have several. Only these are listed. An entry can have further records. The values listed for one entry do not match, cause unknown; dose, time, organism, isomer or construct need not be as stated for each record.

Protein sequences, listed by entry. Tags and fused reporters are not part of them.
UniProt P37230, whole entry: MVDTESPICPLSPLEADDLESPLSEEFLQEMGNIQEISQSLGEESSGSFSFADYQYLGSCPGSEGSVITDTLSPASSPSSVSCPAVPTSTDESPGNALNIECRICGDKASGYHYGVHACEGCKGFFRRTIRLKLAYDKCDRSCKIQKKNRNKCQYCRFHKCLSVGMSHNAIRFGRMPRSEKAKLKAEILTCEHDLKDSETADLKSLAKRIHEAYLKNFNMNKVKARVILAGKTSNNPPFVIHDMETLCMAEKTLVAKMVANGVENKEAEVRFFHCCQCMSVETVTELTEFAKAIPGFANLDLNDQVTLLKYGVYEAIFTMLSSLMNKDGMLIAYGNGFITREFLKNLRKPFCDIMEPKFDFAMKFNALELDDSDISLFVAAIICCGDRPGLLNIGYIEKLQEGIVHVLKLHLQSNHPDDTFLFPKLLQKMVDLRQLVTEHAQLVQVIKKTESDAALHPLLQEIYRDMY

Biological target: PPAR alpha (Rattus norvegicus, UniProt P37230)
Assay: PPAR alpha transactivation assay in COS-1 cells
Format: cell-based
Conditions: at 1 mM, versus vehicle, mean±SD n=3

## O=C(O)C(F)(F)C(F)(F)F [PFPA, Perfluropropionic acid]
  Fold activation of PPAR alpha: approximately 2 fold and 1.36 ± 0.51 fold
